Values from PubChem BioAssay AID1508597 (Cure First, 2020).
Shown is an unselected part of the about 2,100 reagents, in one setting of the screen. 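Calls flag viability under 80% in either arm, not effects specific to rucaparib; the reference for percent is not stated.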 A number with no mark means an inactive call. Not given: the 100% reference.

Screen: 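Knock-downs altering ovarian cancer cell survival with or without PARP inhibitor rucaparib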 (primary screen)
System: human ovarian carcinoma lines grown from tumours: OCI-P5x (papillary serous) and OCI-C5x (clear cell)
Reagent: siRNA pool against human genes, 1.25 pmol siRNA per well
Duration: 72 h or 96 h, depending on the cell culture
Conditions: rucaparib 20 µM (about IC30) or vehicle, present until read-out
Rucaparib or vehicle: Rucaparib
Cell line: OCI-P5x (serous)
Detection: 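ATP luminescence measured at 72 or 96 h according to the culture, then normalised and expressed as percent viability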
Direction: viability, normalised: higher = more viable cells remaining
Hit rule: 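a well counts as a hit if its normalised viability is under 80 percent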
Meaning of the calls: active = viability under 80%; inactive = viability 80% or more

The first 3 entries, to show the layout:
gene knocked down,PubChem SID,technical replicate,"viability, normalised (%)"
ATP5F1D (GeneID 513),SID405526329,1,80.9
ATP5F1D (GeneID 513),SID405526329,2,74.7 (active)
ATP5F1D (GeneID 513),SID405526329,3,71.3 (active)

The list itself, repeating the preview:
gene knocked down,PubChem SID,technical replicate,"viability, normalised (%)"
ATP5F1D (GeneID 513),SID405526329,1,80.9
ATP5F1D (GeneID 513),SID405526329,2,74.7 (active)
ATP5F1D (GeneID 513),SID405526329,3,71.3 (active)
DDX27 (GeneID 55661),SID405528181,1,68 (active)
DDX27 (GeneID 55661),SID405528181,2,102
DDX27 (GeneID 55661),SID405528181,3,84.3
LIG3 (GeneID 3980),SID405528288,1,50.6 (active)
LIG3 (GeneID 3980),SID405528288,2,35.7 (active)
LIG3 (GeneID 3980),SID405528288,3,49.7 (active)
H2AC4 (GeneID 8335),SID405528453,1,103
H2AC4 (GeneID 8335),SID405528453,2,85.1
H2AC4 (GeneID 8335),SID405528453,3,95.8
RDM1 (GeneID 201299),SID405528422,1,53.7 (active)
RDM1 (GeneID 201299),SID405528422,2,54.4 (active)
RDM1 (GeneID 201299),SID405528422,3,62.7 (active)
PIM3 (GeneID 415116),SID405527698,1,95.9
PIM3 (GeneID 415116),SID405527698,2,77.5 (active)
PIM3 (GeneID 415116),SID405527698,3,79.7 (active)
PLCB1 (GeneID 23236),SID405526705,1,54.3 (active)
PLCB1 (GeneID 23236),SID405526705,2,67 (active)
PLCB1 (GeneID 23236),SID405526705,3,49.8 (active)
UHRF2 (GeneID 115426),SID405526607,1,87.1
UHRF2 (GeneID 115426),SID405526607,2,46.3 (active)
UHRF2 (GeneID 115426),SID405526607,3,89.6
DHX30 (GeneID 22907),SID405528212,1,55.7 (active)
DHX30 (GeneID 22907),SID405528212,2,57.6 (active)
DHX30 (GeneID 22907),SID405528212,3,59.4 (active)
PNKP (GeneID 11284),SID405528330,1,75.7 (active)
PNKP (GeneID 11284),SID405528330,2,80.7
PNKP (GeneID 11284),SID405528330,3,66.4 (active)
MAP3K4 (GeneID 4216),SID405527380,1,90.5
MAP3K4 (GeneID 4216),SID405527380,2,102
MAP3K4 (GeneID 4216),SID405527380,3,96.5
PHIP (GeneID 55023),SID405527159,1,48.8 (active)
PHIP (GeneID 55023),SID405527159,2,38.8 (active)
PHIP (GeneID 55023),SID405527159,3,49.5 (active)
TINF2 (GeneID 26277),SID405528277,1,52 (active)
TINF2 (GeneID 26277),SID405528277,2,65 (active)
TINF2 (GeneID 26277),SID405528277,3,53.4 (active)
